Assay results: paper PMC4772974 (EMBO Reports, 2016)
Like-named read-outs stand apart in the source and are kept apart here. Results are given in words; binding and its absence hold for the method and conditions named. In cells and extracts the contact can be indirect. Some results given as binding are weak or reduced against the parent protein; the word gives no strength. For part of these data: Sequences can lack the tags named with a protein.

The chains behind the UniProt entries cited, without tags or fusion partners. Where a name states a change or a piece, a line headed by the entry shows the natural chain unless it says otherwise.
UniProt Q15154: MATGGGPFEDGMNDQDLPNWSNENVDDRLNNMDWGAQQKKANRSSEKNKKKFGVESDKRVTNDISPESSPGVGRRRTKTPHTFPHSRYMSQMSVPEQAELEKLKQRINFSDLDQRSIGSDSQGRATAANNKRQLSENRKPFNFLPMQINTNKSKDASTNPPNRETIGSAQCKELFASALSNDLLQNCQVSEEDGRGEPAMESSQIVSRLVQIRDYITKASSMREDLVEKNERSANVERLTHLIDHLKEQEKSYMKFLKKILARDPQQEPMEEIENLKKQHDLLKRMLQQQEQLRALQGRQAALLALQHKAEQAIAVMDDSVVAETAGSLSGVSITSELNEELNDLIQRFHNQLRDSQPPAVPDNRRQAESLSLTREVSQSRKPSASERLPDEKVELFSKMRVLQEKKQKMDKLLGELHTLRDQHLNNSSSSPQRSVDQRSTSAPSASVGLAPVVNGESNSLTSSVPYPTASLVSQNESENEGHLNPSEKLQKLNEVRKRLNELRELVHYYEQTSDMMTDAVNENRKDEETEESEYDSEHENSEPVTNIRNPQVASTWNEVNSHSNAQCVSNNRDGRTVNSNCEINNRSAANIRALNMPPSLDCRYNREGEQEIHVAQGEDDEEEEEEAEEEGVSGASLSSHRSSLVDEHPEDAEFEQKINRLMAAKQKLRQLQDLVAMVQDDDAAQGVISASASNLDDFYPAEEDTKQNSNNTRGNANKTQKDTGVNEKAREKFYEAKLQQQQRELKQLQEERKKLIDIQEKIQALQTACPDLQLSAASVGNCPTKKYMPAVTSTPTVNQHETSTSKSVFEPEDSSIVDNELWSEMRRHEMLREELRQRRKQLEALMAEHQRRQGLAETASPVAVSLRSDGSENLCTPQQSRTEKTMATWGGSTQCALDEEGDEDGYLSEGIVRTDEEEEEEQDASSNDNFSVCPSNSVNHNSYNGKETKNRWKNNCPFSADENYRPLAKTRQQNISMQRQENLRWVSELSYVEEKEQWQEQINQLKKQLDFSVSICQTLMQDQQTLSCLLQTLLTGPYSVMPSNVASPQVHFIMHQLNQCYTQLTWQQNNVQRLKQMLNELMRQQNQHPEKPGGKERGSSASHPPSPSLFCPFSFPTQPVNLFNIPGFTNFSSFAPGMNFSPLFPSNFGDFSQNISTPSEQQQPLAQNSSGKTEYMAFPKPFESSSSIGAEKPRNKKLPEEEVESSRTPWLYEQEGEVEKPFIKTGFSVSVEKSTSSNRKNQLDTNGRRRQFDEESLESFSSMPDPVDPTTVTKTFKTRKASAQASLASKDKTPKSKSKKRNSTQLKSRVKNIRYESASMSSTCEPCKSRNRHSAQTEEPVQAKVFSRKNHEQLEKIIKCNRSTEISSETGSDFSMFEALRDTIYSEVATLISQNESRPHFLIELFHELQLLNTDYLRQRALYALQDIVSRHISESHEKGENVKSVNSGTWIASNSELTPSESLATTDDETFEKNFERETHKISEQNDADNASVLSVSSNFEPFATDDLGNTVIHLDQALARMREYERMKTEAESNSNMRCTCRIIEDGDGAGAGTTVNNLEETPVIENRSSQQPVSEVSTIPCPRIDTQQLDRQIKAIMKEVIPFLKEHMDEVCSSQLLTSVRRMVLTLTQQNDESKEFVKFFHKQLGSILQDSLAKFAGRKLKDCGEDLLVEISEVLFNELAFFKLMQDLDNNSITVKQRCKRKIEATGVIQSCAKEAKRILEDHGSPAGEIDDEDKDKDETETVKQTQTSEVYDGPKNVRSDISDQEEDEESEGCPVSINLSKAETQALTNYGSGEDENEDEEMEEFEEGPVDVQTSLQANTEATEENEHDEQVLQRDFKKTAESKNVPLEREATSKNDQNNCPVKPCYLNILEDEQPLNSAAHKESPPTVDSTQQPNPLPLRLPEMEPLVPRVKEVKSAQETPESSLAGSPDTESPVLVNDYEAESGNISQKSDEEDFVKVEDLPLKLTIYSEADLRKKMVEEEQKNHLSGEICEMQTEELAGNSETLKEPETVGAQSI
UniProt O15078: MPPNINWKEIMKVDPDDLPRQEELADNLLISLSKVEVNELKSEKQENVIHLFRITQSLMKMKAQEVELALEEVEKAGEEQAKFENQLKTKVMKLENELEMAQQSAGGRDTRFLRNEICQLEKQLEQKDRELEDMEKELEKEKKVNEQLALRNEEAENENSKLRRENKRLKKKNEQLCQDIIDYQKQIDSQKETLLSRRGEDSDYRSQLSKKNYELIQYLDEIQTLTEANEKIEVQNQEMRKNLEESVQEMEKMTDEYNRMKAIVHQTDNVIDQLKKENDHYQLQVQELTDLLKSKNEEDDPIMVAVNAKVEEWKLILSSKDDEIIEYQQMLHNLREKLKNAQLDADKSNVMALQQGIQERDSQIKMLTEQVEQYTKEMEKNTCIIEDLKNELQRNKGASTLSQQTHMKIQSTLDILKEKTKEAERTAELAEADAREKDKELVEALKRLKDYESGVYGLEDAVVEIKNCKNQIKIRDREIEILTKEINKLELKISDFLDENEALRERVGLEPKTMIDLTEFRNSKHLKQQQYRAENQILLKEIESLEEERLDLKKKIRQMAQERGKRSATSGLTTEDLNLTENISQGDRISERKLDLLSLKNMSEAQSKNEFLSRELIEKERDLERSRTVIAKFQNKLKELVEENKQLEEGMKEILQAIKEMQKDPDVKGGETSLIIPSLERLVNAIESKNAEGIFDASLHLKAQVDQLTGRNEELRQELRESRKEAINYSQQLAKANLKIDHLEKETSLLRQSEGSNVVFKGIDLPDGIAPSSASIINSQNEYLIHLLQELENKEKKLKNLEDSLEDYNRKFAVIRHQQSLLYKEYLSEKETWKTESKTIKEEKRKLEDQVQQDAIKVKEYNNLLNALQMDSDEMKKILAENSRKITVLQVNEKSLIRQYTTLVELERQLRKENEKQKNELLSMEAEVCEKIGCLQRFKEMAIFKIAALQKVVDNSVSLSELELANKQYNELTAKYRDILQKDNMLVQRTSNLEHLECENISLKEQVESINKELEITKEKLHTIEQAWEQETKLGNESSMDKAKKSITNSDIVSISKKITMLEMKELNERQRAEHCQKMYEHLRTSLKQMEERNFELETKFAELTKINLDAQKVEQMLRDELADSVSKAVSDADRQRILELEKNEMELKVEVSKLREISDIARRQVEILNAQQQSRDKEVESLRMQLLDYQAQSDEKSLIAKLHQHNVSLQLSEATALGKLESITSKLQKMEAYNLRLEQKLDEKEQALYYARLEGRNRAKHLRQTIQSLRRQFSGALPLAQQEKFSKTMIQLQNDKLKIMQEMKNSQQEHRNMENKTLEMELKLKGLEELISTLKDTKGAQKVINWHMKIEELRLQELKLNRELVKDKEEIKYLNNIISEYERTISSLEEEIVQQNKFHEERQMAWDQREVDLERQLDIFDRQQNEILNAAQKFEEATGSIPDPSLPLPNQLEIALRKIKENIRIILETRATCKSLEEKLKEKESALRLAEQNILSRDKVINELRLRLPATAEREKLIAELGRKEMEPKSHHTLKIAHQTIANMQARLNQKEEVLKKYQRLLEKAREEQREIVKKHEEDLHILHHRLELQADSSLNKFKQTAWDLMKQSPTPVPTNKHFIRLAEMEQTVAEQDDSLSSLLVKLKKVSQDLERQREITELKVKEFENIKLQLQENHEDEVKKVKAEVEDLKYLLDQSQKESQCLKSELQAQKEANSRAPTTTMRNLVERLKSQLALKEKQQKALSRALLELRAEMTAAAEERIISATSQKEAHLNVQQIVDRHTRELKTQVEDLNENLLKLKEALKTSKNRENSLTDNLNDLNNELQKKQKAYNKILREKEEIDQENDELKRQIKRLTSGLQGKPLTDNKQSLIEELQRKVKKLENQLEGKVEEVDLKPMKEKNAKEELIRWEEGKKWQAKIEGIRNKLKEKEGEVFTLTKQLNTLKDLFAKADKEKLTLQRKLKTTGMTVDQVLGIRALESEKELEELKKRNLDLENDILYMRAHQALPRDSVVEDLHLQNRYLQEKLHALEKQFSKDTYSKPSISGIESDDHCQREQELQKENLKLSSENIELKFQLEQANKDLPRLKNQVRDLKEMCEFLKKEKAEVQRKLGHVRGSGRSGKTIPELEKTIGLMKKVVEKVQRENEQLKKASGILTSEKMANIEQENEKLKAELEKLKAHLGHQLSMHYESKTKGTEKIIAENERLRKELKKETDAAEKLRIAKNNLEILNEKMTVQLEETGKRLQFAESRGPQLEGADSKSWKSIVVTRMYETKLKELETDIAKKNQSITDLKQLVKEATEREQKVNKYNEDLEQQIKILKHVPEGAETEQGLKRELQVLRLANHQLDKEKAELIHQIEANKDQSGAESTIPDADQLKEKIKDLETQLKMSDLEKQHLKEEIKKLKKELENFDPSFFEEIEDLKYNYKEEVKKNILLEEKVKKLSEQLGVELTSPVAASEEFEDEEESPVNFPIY

T1: myc‐Plk4 (wild type; siRNA-resistant version myc‐tagged Plk4‐WT*) (UniProt O00444)
T1 sequence: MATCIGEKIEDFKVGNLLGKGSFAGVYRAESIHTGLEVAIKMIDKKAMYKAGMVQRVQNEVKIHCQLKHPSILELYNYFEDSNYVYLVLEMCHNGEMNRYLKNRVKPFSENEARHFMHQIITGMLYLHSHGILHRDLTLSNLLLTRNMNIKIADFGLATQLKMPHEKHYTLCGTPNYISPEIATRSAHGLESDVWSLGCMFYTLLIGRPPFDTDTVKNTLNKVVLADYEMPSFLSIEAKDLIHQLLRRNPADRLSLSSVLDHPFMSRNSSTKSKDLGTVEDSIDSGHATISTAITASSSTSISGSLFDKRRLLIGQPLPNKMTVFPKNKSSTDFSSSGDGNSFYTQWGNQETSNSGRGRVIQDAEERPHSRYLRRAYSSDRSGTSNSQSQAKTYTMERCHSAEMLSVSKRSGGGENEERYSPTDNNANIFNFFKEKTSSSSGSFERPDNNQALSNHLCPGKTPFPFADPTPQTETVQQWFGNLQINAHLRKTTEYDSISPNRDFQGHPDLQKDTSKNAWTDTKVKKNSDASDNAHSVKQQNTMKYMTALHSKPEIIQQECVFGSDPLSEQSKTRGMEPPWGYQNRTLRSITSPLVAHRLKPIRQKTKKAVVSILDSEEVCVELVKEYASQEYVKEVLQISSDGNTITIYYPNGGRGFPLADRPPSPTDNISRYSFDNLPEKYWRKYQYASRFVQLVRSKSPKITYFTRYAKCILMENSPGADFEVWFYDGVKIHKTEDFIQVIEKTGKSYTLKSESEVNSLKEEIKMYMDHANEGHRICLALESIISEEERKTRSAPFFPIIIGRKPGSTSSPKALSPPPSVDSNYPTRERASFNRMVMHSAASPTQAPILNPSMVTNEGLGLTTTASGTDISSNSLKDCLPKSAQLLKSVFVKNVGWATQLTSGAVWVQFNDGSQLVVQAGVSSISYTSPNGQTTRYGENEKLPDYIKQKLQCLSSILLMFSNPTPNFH


Tests used:
[1] = biological target: EGFP‐PCM1 (wild type; siRNA-resistant version EGFP‐PCM1‐WT*) (human) (UniProt Q15154); assay: co-IP; U2OS cells transfected with EGFP-PCM1 constructs (for Fig 3F after PCM1 siRNA); 1 mg lysate with GFP-Trap / anti-GFP overnight at 4°C in lysis buffer (25 mM Tris-HCl pH 7.0, 300 mM NaCl, 1% NP-40); immunoblot of endogenous partners
EGFP‐PCM1‐S372A* (human) [2] = biological target: EGFP‐PCM1‐S372A* (human) (UniProt Q15154); assay: as above
EGFP‐PCM1‐S372A* (human) [3] = biological target: EGFP‐PCM1‐S372A* (human) (UniProt Q15154); assay: co-IP; PCM1 siRNA-treated U2OS cells co-transfected with EGFP- and mCherry-tagged PCM1 (WT*, S372A*) in combinations; IP with anti-RFP (RFP-Trap) of mCherry-PCM1, immunoblot
[4] = biological target: T1, myc‐Plk4 (wild type; siRNA-resistant version myc‐tagged Plk4‐WT*); assay: co-IP; U2OS cells transfected with myc-Plk4 (for Fig EV2A siRNA-resistant myc-Plk4-WT* after Plk4 siRNA); IP with anti-myc antibody; immunoblot of endogenous proteins
[5] = biological target: EGFP‐PCM1 (wild type; siRNA-resistant version EGFP‐PCM1‐WT*) (human) (UniProt Q15154); assay: co-IP; U2OS cells transfected with EGFP-PCM1 constructs (for Fig 3F after PCM1 siRNA); 1 mg lysate with GFP-Trap / anti-GFP overnight at 4°C in lysis buffer (25 mM Tris-HCl pH 7.0, 300 mM NaCl, 1% NP-40); immunoblot of endogenous partners; remark: listed apart in the source
EGFP‐PCM1‐S372A* (human) [6] = biological target: EGFP‐PCM1‐S372A* (human) (UniProt Q15154); assay: as above; remark: listed apart in the source

| binding [4] | binding [5] | Molecule | also measured |
| --- | --- | --- | --- |
| – | – | Cep290 (from UniProt O15078 1-2479) | binding [1]: binds; binding (EGFP‐PCM1‐S372A* (human) [2]): binds |
| – | – | EGFP‐PCM1 (wild type; siRNA-resistant version EGFP‐PCM1‐WT*) (from UniProt Q15154 1-2024) | binding (EGFP‐PCM1‐S372A* (human) [3]): binds |
| binds | – | endogenous PCM1 (from UniProt Q15154 1-2024) | – |
| – | – | EGFP‐PCM1‐S372A* (from UniProt Q15154 1-2024) | binding (EGFP‐PCM1‐S372A* (human) [3]): binds |
| – | binds | MBP‐Plk4‐WT (enzyme, UniProt O00444 1-970, looked up) MATCIGEKIEDFKVGNLLGKGSFAGVYRAESIHTGLEVAIKMIDKKAMYKAGMVQRVQNEVKIHCQLKHPSILELYNYFEDSNYVYLVLEMCHNGEMNRYLKNRVKPFSENEARHFMHQIITGMLYLHSHGILHRDLTLSNLLLTRNMNIKIADFGLATQLKMPHEKHYTLCGTPNYISPEIATRSAHGLESDVWSLGCMFYTLLIGRPPFDTDTVKNTLNKVVLADYEMPSFLSIEAKDLIHQLLRRNPADRLSLSSVLDHPFMSRNSSTKSKDLGTVEDSIDSGHATISTAITASSSTSISGSLFDKRRLLIGQPLPNKMTVFPKNKSSTDFSSSGDGNSFYTQWGNQETSNSGRGRVIQDAEERPHSRYLRRAYSSDRSGTSNSQSQAKTYTMERCHSAEMLSVSKRSGGGENEERYSPTDNNANIFNFFKEKTSSSSGSFERPDNNQALSNHLCPGKTPFPFADPTPQTETVQQWFGNLQINAHLRKTTEYDSISPNRDFQGHPDLQKDTSKNAWTDTKVKKNSDASDNAHSVKQQNTMKYMTALHSKPEIIQQECVFGSDPLSEQSKTRGMEPPWGYQNRTLRSITSPLVAHRLKPIRQKTKKAVVSILDSEEVCVELVKEYASQEYVKEVLQISSDGNTITIYYPNGGRGFPLADRPPSPTDNISRYSFDNLPEKYWRKYQYASRFVQLVRSKSPKITYFTRYAKCILMENSPGADFEVWFYDGVKIHKTEDFIQVIEKTGKSYTLKSESEVNSLKEEIKMYMDHANEGHRICLALESIISEEERKTRSAPFFPIIIGRKPGSTSSPKALSPPPSVDSNYPTRERASFNRMVMHSAASPTQAPILNPSMVTNEGLGLTTTASGTDISSNSLKDCLPKSAQLLKSVFVKNVGWATQLTSGAVWVQFNDGSQLVVQAGVSSISYTSPNGQTTRYGENEKLPDYIKQKLQCLSSILLMFSNPTPNFH | – |
| no binding | binds | BBS4 (protein, UniProt Q96RK4 1-519) MAEERVATRTQFPVSTESQKPRQKKAPEFPILEKQNWLIHLHYIRKDYEACKAVIKEQLQETQGLCEYAIYVQALIFRLEGNIQESLELFQTCAVLSPQSADNLKQVARSLFLLGKHKAAIEVYNEAAKLNQKDWEISHNLGVCYIYLKQFNKAQDQLHNALNLNRHDLTYIMLGKIHLLEGDLDKAIEVYKKAVEFSPENTELLTTLGLLYLQLGIYQKAFEHLGNALTYDPTNYKAILAAGSMMQTHGDFDVALTKYRVVACAVPESPPLWNNIGMCFFGKKKYVAAISCLKRANYLAPFDWKILYNLGLVHLTMQQYASAFHFLSAAINFQPKMGELYMLLAVALTNLEDIENAKRAYAEAVHLDKCNPLVNLNYAVLLYNQGEKKNALAQYQEMEKKVSLLKDNSSLEFDSEMVEMAQKLGAALQVGEALVWTKPVKDPKSKHQTTSTSKPASFQQPLGSNQALGQAMSSAAAYRTLPSGAGGTSQFTKPPSLPLEPEPAVESSPTETSEQIREK | binding (EGFP‐PCM1‐S372A* (human) [6]): binds |
| no binding | binds | hMsd1/SSX2IP (protein, UniProt Q9Y2D8 1-614) MGDWMTVTDPGLSSESKTISQYTSETKMSPSSLYSQQVLCSSIPLSKNVHSFFSAFCTEDNIEQSISYLDQELTTFGFPSLYEESKGKETKRELNIVAVLNCMNELLVLQRKNLLAQENVETQNLKLGSDMDHLQSCYSKLKEQLETSRREMIGLQERDRQLQCKNRNLHQLLKNEKDEVQKLQNIIASRATQYNHDMKRKEREYNKLKERLHQLVMNKKDKKIAMDILNYVGRADGKRGSWRTGKTEARNEDEMYKILLNDYEYRQKQILMENAELKKVLQQMKKEMISLLSPQKKKPRERVDDSTGTVISDVEEDAGELSRESMWDLSCETVREQLTNSIRKQWRILKSHVEKLDNQVSKVHLEGFNDEDVISRQDHEQETEKLELEIQQCKEMIKTQQQLLQQQLATAYDDDTTSLLRDCYLLEEKERLKEEWSLFKEQKKNFERERRSFTEAAIRLGLERKAFEEERASWLKQQFLNMTTFDHQNSENVKLFSAFSGSSDWDNLIVHSRQPQKKPHSVSNGSPVCMSKLTKSLPASPSTSDFCQTRSCISEHSSINVLNITAEEIKPNQVGGECTNQKWSVASRPGSQEGCYSGCSLSYTNSHVEKDDLP | binding (EGFP‐PCM1‐S372A* (human) [6]): binds |
